# Data published in PubChem BioAssay AID1259415 (National Center for Advancing Translational Sciences (NCATS), 2018).
# Values joined by “and” are separate entries in the source; they are usually repeats but may differ in a detail not shown here. Equal values may be shown once. In all, about 410,000 compounds went through this assay and about 18,000 (4.4%) were called active. This list was built around the results that the source calls inconclusive (neither active nor inactive); the mix of calls is not that of the screen. Cut-off read from the data, not from the text of the source: active = activity change below about -60%; inconclusive = no clear call, values can overlap the other calls; inactive = above about -39%.
# Assay: qHTS Assay for inhibitors of the human cytomegalovirus (HCMV)
# Conditions: HFF cells, HCMV-luciferase reporter, 72 h; at 57.5 µM; stronger effect = lower value
# Method in brief: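 Human foreskin fibroblasts infected with luciferase-reporter HCMV at MOI 1 PFU/cell, compounds at two doses. Luciferase measured 72 h post infection; normalized to buffer-only basal and Salinomycin (10uM) controls.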
# % is set by controls: 0 for no effect and ±100 for the full control effect.
row,SMILES,"activity change, negative = inhibition"
1,Cc1ccc(NC(=S)Nc2ccc(S(=O)(=O)N3CCOCC3)cc2)cc1S(=O)(=O)N1CCOCC1,inconclusive: -59.4%
2,CCOC(=O)c1ccc(NC(=O)Cn2cc(C(=O)c3ccc(Cl)cc3)c(=O)c3ccc(C)nc32)cc1,inconclusive: -50.2%
3,C[C@@H]1NC(=O)/C(=C\c2ccccc2Cl)NC1=O,inconclusive: -43.4%
4,COc1ccc(Nc2ccc(S(=O)(=O)N3CCCCC3)cc2[N+](=O)[O-])cc1Cl,inconclusive: -44.1%
5,Cn1c(Cc2ccccc2)nnc1SCc1cc(=O)n2ccsc2n1,active: -62.6%
6,O=C(CCN1CCN(Cc2ccccc2)CC1)NNC(=O)Nc1cccc([N+](=O)[O-])c1,inconclusive: -58.8%
7,O=C(NC(c1ccc(-c2ccccc2)cc1)c1cnccn1)C1CCN(CCN2C(=O)c3ccccc3C2=O)CC1 (stereo unspecified),inconclusive: -45.1%
8,COc1ccc(-c2nnc(SCCc3ccccc3)n2N)cc1,inactive: -16.4%
9,CCN(CC)C(=O)C1CCCN(c2ncnc3c2cnn3-c2ccc(Cl)cc2)C1 (stereo unspecified),active: -67.6%
10,CC1(OC(=O)CCc2ccccc2)C(=O)C=C2C=C(c3ccc(C#N)cc3)N(CCc3c[nH]c4ccccc34)C=C2C1=O (stereo unspecified),inactive: -5.33%
11,CC(C)(C)n1nc2c(c1NC(=O)COc1ccc(Cl)cc1)CS(=O)(=O)C2,inactive: 21.5%
12,Cn1nnnc1Sc1ncnc2scc(-c3cccc(C(F)(F)F)c3)c12,active: -99.4%
13,Cc1cccc(-c2cccc3[nH]c4c(c23)CCN2C(=O)[C@H]3[C@H](C)ON(C)[C@H]3C[C@@H]42)c1,inconclusive: -50.8%
14,COCCNC(=O)C(=O)N/N=C(\C)CC(=O)Nc1cccnc1,inactive: -0.715%
15,Nc1nc(-c2ccco2)c(-c2ccco2)s1,inactive: -25.7%
16,Cc1ccc(Nc2nc3ccccc3c3nncn23)cc1C,inconclusive: -48.1%
17,c1ccc2c(c1)cnc1ccccc12,inactive: -18.5% and inactive: -3.08%
18,O=C1c2ccccc2C(=O)c2c1ncn2-c1ccccc1,active: -67.6%
19,CC1Cc2ccccc2N1CC(=O)Nc1ccc(Cl)c(S(=O)(=O)N(C)C)c1 (stereo unspecified),inactive: -32.3%
20,Cc1cccc(-n2nnnc2S(C)(=O)=O)c1,active: -108%
21,COc1ccc(NC(=O)C2Cc3ccccc3O/C2=N\O)cc1 (stereo unspecified),inconclusive: -46.7%
22,Cc1ccc(NC(=O)CO/N=C(\N)c2ccccc2)cc1C,inactive: -18.7%

# Reprinted at random: 7 compounds from above.
row,SMILES,"activity change, negative = inhibition"
15,Nc1nc(-c2ccco2)c(-c2ccco2)s1,inactive: -25.7%
22,Cc1ccc(NC(=O)CO/N=C(\N)c2ccccc2)cc1C,inactive: -18.7%
11,CC(C)(C)n1nc2c(c1NC(=O)COc1ccc(Cl)cc1)CS(=O)(=O)C2,inactive: 21.5%
7,O=C(NC(c1ccc(-c2ccccc2)cc1)c1cnccn1)C1CCN(CCN2C(=O)c3ccccc3C2=O)CC1 (stereo unspecified),inconclusive: -45.1%
13,Cc1cccc(-c2cccc3[nH]c4c(c23)CCN2C(=O)[C@H]3[C@H](C)ON(C)[C@H]3C[C@@H]42)c1,inconclusive: -50.8%
10,CC1(OC(=O)CCc2ccccc2)C(=O)C=C2C=C(c3ccc(C#N)cc3)N(CCc3c[nH]c4ccccc34)C=C2C1=O (stereo unspecified),inactive: -5.33%
16,Cc1ccc(Nc2nc3ccccc3c3nncn23)cc1C,inconclusive: -48.1%

# Later entries.

row,SMILES,"activity change, negative = inhibition"
1,COc1ccc(Br)cc1CNC(=O)C1CCCCN1S(=O)(=O)c1ccc(F)cc1 (stereo unspecified),inactive: -22.8%
2,CCOc1ccc(NC(=S)Nc2ccccc2C2CC2)cc1,inconclusive: -40.1%
3,N#C/C(=C(/O)COC(=O)CCC1CCCCC1)c1nc2ccccc2[nH]1,active: -68.8%
4,Cc1cc(C)c(Cn2c(C(O)c3ccccc3)nc3ccccc32)c(C)c1 (stereo unspecified),inconclusive: -52.1%
5,CN(C)c1nc(NCc2ccccc2)nc(SCC(=O)Nc2ccccc2)n1,inconclusive: -41.4%
6,O=C(c1ccccc1F)N1CCN(Cc2nc3sc4c(c3c(=O)[nH]2)CCCC4)CC1,inconclusive: -43.6%
7,O=C(CSc1nc2ccccc2n1Cc1ccccc1Cl)NCc1ccccc1,inactive: -34.8%
8,COc1cc(OC)cc(-c2cn[nH]c2N)c1,inconclusive: -50.1%
9,COc1ccccc1CC(=O)N1CCN(c2cccc(C(F)(F)F)c2)CC1,active: -69.5%
10,COc1ccc(-c2nsc3c(N4CCCCC4)ncnc23)cc1,active: -82.8%
11,CCCCN(C)CCNC(=O)c1nn(-c2ccc(OC)cc2)c(=O)c2c1c1ccccc1n2C,inconclusive: -57.5%
12,CCOC(=O)c1[nH]cnc1C(=O)Nc1ccc(F)cc1,inconclusive: -43%
13,COc1ccc(Nc2ncnc3sc(-c4ccccc4)cc23)cc1OC,active: -61.6%
14,COc1ccc2[nH]cc(/C=C/c3cc[n+](C)cc3)c2c1,active: -91.9%
15,S=C(NCc1cccs1)Nc1cc(Cl)cc(Cl)c1,active: -100%
16,O=C(Nc1cccc(S(=O)(=O)NC2=NCCC2)c1)c1cc(-c2ccco2)nc2ccccc12,inactive: 8.23%
17,CCOC(=O)C(=Cc1ccc(-n2ccnc2)cc1)C(=O)OCC,active: -86.2%
18,Cc1sc2ncnc(N3CCC(C(=O)N(C)CC(=O)Nc4ccc(Cl)c(C(F)(F)F)c4)CC3)c2c1C,inconclusive: -46.9%
19,C[C@]12C(=O)N(c3cccc(F)c3)C(=O)N1[C@H]1c3ccccc3OC[C@@H]1[C@H]2c1ccccc1,inconclusive: -45.1%
20,O=[N+]([O-])c1ccc(Sc2nnnn2-c2ccccc2)nc1,active: -88.1%
21,CCCCC(CC)CN1C(=O)/C(=C/c2ccncc2)SC1=S (stereo unspecified),inconclusive: -56.1%
22,COc1ccccc1-c1ncn(Cc2cccc(-c3ccccc3)c2)c1CC(C)C,inconclusive: -54%

row,SMILES,"activity change, negative = inhibition"
1,O=C(Cc1csc(-c2ccc(Cl)cc2)n1)Nc1cccc(S(=O)(=O)NC2=NCCC2)c1,inconclusive: -50%
2,CCOC(=O)c1c(-c2ccc(OC)cc2)oc2ccc(OCc3ccc(C(=O)OC)cc3)cc12,inactive: -6.67%
3,c1ccc(CN2CCN(c3nc(-c4ccccn4)nc4ccccc34)CC2)cc1,active: -98.7%
4,CN1CCC(N(C)C(=S)NC(=O)c2cc(-c3cccc(Br)c3)nc3ccccc23)CC1,inactive: 4.98%
5,Cc1cc(C)cc(C(=O)Oc2cc(C)[nH]c(=O)c2[N+](=O)[O-])c1,inconclusive: -40.1%
6,CCOC(=O)Nc1ccc2c(CN3CCN(S(=O)(=O)c4ccccc4F)CC3)cc(=O)oc2c1,inconclusive: -45.2%
7,Cc1oc2ccc(O)c(CN3CCCC(C)C3)c2c1C(=O)Nc1ccccc1 (stereo unspecified),inconclusive: -56.7%
8,O=C1CC2(CCCC2)CC(=O)N1CCCCN1CCN(c2ncccn2)CC1,inconclusive: -58.7%
9,N#CC(=Cc1ccc(-c2ccccc2)cc1)C(=O)c1ccccc1,inactive: 43.2%
10,CCC(C)(C)n1nnnc1C(c1cccs1)N1CCN(c2nc3ccccc3s2)CC1 (stereo unspecified),active: -76.3%
11,CCOC(=O)N1CCN(C(=O)C(c2ccccc2)c2ccccc2)CC1,inconclusive: -47.1%
12,COc1ccc(S(=O)(=O)N(C)C[C@H]2Oc3ccc(NC(=O)C4CCCCC4)cc3C(=O)N([C@H](C)CO)C[C@@H]2C)cc1,inconclusive: -42.7%
13,N#Cc1ccc(OCC(=O)N2CCN(c3ccc(C(F)(F)F)cn3)CC2)cc1,inconclusive: -47.5%
14,CCCCC(=O)NC(c1ccc(N(C)C)cc1)c1ccc2cccnc2c1O (stereo unspecified),active: -102%
15,Cc1ccc(CN2CC(C(=O)N3CCN(c4ccccc4Cl)CC3)CC2=O)cc1 (stereo unspecified),inactive: -24.1%
16,Nc1nnc2cc(Br)ccc2n1,inconclusive: -40%
17,O=C(C[C@@H]1C=C[C@H](NS(=O)(=O)c2ccccc2F)[C@@H](CO)O1)NCCCN1CCOCC1,inconclusive: -45.5%
18,O=C(CN1CCCCC1)N1CCN(S(=O)(=O)c2ccccc2)C1,active: -103%
19,CCCCn1c(=O)[nH]c(=O)c2c1nc(-c1ccc(C#N)cc1)n2C1CCCC1,inconclusive: -45.7%
20,O=C(NCC1CCCO1)c1cc2ccccc2o1 (stereo unspecified),inconclusive: -51.2%
21,COc1cc(OC)c2c(-c3ccccc3)cc(=O)oc2c1C(CCN1CCOCC1)c1ccc2c(c1)OCO2 (stereo unspecified),inactive: -19.5%
22,COc1ccc(/C=C/C(=O)Nc2cccc(S(=O)(=O)N3CCCC3)c2)cc1OC,inconclusive: -53.6%

row,SMILES,"activity change, negative = inhibition"
1,N#Cc1ccccc1NC(=O)CSC1=Nc2ccccc2C2CC=NN12 (stereo unspecified),active: -60.1%
2,CCc1nc(SCC(=O)c2ccc3c(c2)OCCO3)c2ccccc2n1,inconclusive: -54.3%
3,Cc1cc2oc(=O)cc(CN3CCCCC3)c2cc1Cl,inactive: -15.8%
4,COc1ccccc1CN1CC(C(=O)NC2(c3ccccc3)CC2)CCC1=O (stereo unspecified),inconclusive: -43.4%
5,CCN(CC(=O)Nc1ccc(NC(C)=O)cc1)CC(=O)Nc1cc(C)on1,inconclusive: -55.8%
6,COc1ccc(NC(=O)C2CCCCN2S(=O)(=O)c2ccccc2)cc1S(=O)(=O)N1CCOCC1 (stereo unspecified),inconclusive: 0%
7,Cc1ccccc1S(=O)(=O)Cc1ccc(C(=O)N2CCN(c3ccccc3F)CC2)o1,inactive: -33.8%
8,CCc1cc2cccc(C)c2nc1SCC(=O)N1CCN(C(=O)c2ccco2)CC1,inconclusive: -45.6%
9,Cc1cc(CNC(=O)c2cccc([N+](=O)[O-])c2C)c2ccccc2n1,active: -73.3%
10,Cc1ccc(C(C)C)cc1OCC(=O)Nc1ccccc1N1CCCC1,inconclusive: -50.5%
11,COc1cccc(C(O)c2nc(-c3ccncc3)cs2)c1 (stereo unspecified),active: -75.6%
12,CC(=O)NNc1nc(-c2ccc(NC(C)=O)cc2)cs1,inconclusive: -47.1%
13,Cc1cccc(-c2nc(C)c(CCNC(=O)C(=O)Nc3ccc(C)c(C)c3)s2)c1,inactive: -8.65%
14,COc1cccc(CN(C)C(=O)c2cccc(S(=O)(=O)N3CCN(c4ccc(F)cc4)CC3)c2)c1OC,active: -79.6%
15,COc1cc(N2Cc3ccccc3C2)ccc1C=O,inactive: 68.5%
16,CC(=O)N1NC(=Nc2ccccc2)SC1(C)C,inconclusive: -57.5%
17,CC(C)CN(C(=O)CCCc1nc2ccccc2c(=O)[nH]1)c1c(N)n(Cc2ccccc2)c(=O)[nH]c1=O,inactive: -8.96%
18,CCN(c1ccc(OC)cc1)S(=O)(=O)c1csc(C(=O)N2CCCC2)c1,inconclusive: 0%
19,CCN(C(=O)CCc1nc(-c2ccccc2F)no1)c1cc(OC)ccc1OC,inconclusive: -43%
20,CC1(C)SC(=S)N(NC(=O)Nc2ccccc2)C1N(O)C(=O)Nc1cccc2ccccc12 (stereo unspecified),inconclusive: -44.8%
